Measured values from paper PMC5155159.
Construct, isoform or probe ends are uncertain for at least one entry. At least one result comes from cells or an extract, where the contact may be indirect.

Chains of the proteins cited; added tags and fusions are not shown. Chains listed by the source or under a name are the forms on record and can include a tag or linker.
Dicer TN (catalytically inactive), without ectopic TRBP + TRBP full length (D1-D2-D3), one chain, as listed by the source, chain 1 of 2: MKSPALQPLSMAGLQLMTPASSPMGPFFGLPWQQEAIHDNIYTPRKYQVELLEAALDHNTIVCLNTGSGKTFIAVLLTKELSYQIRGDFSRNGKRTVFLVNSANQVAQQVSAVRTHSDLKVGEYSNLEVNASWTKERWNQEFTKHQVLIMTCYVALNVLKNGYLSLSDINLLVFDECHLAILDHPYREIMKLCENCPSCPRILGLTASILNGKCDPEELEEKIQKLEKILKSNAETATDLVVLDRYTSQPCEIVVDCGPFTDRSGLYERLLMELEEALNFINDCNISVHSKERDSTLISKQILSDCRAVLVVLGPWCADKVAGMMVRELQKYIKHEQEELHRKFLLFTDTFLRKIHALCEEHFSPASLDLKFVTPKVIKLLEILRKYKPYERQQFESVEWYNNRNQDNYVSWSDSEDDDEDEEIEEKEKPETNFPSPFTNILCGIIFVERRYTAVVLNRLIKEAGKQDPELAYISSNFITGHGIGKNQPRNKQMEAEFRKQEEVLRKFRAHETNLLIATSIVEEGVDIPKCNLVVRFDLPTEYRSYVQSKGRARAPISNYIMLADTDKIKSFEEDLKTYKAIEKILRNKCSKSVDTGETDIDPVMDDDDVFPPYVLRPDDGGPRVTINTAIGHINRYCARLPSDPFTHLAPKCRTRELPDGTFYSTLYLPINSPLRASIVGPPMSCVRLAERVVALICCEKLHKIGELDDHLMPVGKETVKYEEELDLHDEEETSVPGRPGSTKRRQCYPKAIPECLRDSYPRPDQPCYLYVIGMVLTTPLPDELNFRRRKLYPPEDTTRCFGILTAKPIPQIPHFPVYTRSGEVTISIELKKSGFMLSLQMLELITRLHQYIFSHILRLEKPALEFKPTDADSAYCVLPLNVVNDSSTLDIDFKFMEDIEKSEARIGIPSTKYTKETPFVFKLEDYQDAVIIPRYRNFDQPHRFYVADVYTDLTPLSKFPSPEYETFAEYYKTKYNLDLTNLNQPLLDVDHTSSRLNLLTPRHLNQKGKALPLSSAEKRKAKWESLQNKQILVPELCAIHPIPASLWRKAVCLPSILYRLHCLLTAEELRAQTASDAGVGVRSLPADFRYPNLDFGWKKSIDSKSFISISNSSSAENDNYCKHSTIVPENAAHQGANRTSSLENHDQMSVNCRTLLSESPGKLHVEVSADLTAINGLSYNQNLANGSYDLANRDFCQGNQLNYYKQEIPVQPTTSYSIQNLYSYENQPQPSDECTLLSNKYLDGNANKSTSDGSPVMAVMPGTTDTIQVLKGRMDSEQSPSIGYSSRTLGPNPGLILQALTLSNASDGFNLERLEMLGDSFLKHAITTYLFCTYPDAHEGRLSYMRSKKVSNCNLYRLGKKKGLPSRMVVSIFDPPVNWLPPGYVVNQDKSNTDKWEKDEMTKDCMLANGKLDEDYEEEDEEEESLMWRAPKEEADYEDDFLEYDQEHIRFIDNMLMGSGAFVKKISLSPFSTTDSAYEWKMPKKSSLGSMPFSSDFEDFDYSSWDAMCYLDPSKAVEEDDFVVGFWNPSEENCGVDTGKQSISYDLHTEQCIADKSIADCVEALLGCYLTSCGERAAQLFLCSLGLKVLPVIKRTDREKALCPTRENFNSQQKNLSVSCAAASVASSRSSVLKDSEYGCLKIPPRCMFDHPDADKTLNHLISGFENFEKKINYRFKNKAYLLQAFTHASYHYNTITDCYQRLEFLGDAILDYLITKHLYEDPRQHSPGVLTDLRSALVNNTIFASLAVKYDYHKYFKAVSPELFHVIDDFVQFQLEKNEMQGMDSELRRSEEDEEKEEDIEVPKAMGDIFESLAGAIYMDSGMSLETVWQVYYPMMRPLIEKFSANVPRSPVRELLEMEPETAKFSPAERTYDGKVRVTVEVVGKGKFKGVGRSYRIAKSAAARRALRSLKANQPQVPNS
Dicer TN (catalytically inactive), without ectopic TRBP + TRBP full length (D1-D2-D3), one chain, as listed by the source, chain 2 of 2: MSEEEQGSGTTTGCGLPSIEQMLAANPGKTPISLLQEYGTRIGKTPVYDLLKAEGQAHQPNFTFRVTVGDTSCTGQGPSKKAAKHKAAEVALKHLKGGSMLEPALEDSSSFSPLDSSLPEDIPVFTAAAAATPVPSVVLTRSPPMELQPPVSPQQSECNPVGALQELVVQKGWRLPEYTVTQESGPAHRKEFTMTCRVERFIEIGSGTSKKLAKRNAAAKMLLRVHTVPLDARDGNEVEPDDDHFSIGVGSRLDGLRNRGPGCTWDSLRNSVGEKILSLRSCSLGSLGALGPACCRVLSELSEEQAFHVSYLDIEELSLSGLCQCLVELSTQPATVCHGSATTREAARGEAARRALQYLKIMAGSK

System: Dicer TN (catalytically inactive), without ectopic TRBP + TRBP full length (D1-D2-D3)
Assay: single-molecule TIRF
Conditions: WT or TN form not given; amine-modified U (dye); 20 mM Tris pH 8.0, 200 mM KCl, 0.2 mM EDTA, glucose oxidase/catalase oxygen scavenger, 1 mM Trolox; 200 pM labelled RNA (200 nM in Methods); Mg2+ where stated; protein in a lysate after overexpression; protein details: Flag-TEV-AP, in vivo biotinylated,Myc; label: Cy5; letters put together from the description

“UAGCAGCACGUAAAUAUUGGCGUUAAGAUUCUAAAAUUAUCUCCAGUAUUAACUGUGCUGCUGA [pre-miR-16-1]”: binds.
